Data reported in PMC10149743, “Structural studies of the nucleus-like assembly of jumbo bacteriophage 201φ2-1” (Frontiers in Microbiology, 2023).
Results are given in words; binding and its absence hold for the method and conditions named. Each block holds one substance with its values, some of them ahead of it.

The chains behind the UniProt entries cited, without tags or fusion partners. Where a name states a change or a piece, a line headed by the entry shows the natural chain unless it says otherwise.
UniProt B3FIW8: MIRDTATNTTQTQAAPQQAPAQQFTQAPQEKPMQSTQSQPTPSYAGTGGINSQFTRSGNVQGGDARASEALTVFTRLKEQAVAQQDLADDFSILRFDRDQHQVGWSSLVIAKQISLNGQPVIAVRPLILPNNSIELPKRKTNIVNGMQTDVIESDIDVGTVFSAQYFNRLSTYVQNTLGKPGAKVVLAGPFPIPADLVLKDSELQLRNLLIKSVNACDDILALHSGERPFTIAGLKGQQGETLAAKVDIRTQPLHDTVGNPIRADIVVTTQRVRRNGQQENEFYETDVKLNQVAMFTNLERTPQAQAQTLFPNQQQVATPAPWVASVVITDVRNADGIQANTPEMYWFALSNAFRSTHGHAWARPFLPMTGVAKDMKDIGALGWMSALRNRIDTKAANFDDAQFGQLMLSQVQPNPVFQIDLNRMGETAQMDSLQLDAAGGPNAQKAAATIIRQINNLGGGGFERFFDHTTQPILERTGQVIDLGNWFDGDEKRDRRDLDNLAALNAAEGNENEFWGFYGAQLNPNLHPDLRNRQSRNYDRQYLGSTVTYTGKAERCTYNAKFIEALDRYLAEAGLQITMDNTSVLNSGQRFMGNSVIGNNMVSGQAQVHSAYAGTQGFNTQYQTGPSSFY

Legend:
Assay in all cases: SEC; truncation mutants of gp105, purified as the wild type, Superose 6 Increase 10/300 GL in buffer B (20 mM HEPES pH 7.5, 150 mM NaCl); self-association; both purified
[1] = biological target: gp105Δ(CTS 578–631) (Pseudomonas phage 201phi2-1) (UniProt B3FIW8)
[2] = biological target: gp105Δ(NTS 1–60, CTS 578–631) (Pseudomonas phage 201phi2-1) (UniProt B3FIW8)
[3] = biological target: gp105Δ(NTS 1–60, loop 279–285, CTS 578–631) (Pseudomonas phage 201phi2-1) (UniProt B3FIW8)
[4] = biological target: gp105Δ(NTS 1–60, loop 279–285, loop 302–322, CTS 578–631) (Pseudomonas phage 201phi2-1) (UniProt B3FIW8)
[5] = biological target: gp105Δ(NTS 1–60, loop 302–322, CTS 578–631) (Pseudomonas phage 201phi2-1) (UniProt B3FIW8)

binding [1]: no binding
Substance: gp105Δ(CTS 578–631) (from UniProt B3FIW8 1-577) (domain or fragment)

binding [2]: no binding
Substance: gp105Δ(NTS 1–60, CTS 578–631) (from UniProt B3FIW8 61-577) (domain or fragment)

The next lines start with the substance.

Substance: gp105Δ(NTS 1–60, loop 279–285, CTS 578–631) (from UniProt B3FIW8 61-577) (domain or fragment)
binding [3]: no binding

Substance: gp105Δ(NTS 1–60, loop 279–285, loop 302–322, CTS 578–631) (from UniProt B3FIW8 61-577) (domain or fragment)
binding [4]: no binding

Substance: gp105Δ(NTS 1–60, loop 302–322, CTS 578–631) (from UniProt B3FIW8 61-577) (domain or fragment)
binding [5]: no binding
